From US20030207791A1, “Materials and methods relating to the treatment of leukaemias” (priority 2000, published 2003) come the findings set out here.

In one test the target is PML-RAR (UniProt P29590). Put plainly: mobility shift on agarose gels, Xenopus oocyte extracts, RARE probe.
Another test deals with T1, GST-NCoR (1782-2453) (UniProt Q60974).
T1 sequence (looked up): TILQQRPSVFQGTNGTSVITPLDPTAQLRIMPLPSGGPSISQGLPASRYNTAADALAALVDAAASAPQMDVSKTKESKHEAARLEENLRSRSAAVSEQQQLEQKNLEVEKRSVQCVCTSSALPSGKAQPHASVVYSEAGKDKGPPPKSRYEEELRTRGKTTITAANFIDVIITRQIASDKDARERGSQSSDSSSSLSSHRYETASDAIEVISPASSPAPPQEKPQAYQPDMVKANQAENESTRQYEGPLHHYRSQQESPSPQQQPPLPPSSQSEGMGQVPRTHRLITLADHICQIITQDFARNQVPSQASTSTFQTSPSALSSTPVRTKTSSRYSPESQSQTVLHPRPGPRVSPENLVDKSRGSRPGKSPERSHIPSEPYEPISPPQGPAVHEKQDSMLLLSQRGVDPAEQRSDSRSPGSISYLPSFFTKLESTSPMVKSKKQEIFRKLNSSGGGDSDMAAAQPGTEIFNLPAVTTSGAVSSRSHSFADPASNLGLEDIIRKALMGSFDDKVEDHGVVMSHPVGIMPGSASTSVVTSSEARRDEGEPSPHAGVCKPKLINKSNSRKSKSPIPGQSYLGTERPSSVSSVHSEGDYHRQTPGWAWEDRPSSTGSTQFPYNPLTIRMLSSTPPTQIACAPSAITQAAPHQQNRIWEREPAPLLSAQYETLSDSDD
Put plainly: GST pull-down, in vitro translated 35S-labelled protein on GST-NCoR agarose beads.

The next test concerns the target CC-RAR (human) (UniProt P10276). Put plainly: gel filtration of nuclear extracts, Western blot with anti-RAR. (In gel filtration, larger molecules generally elute earlier.)

No constants are given. Whether binding was seen depends on the method and setting. For part of these data: Binding seen in cells or lysates may run through a third protein. Some entries that bind do so weakly or less than the wild type. For part of these data: Tags and fused reporters may be left off the sequences shown.

B1: GST-NCoR (1782-2453) (protein, UniProt Q60974 1782-2453, looked up, not shown: a dimerising Fc or GST)
chain: TILQQRPSVFQGTNGTSVITPLDPTAQLRIMPLPSGGPSISQGLPASRYNTAADALAALVDAAASAPQMDVSKTKESKHEAARLEENLRSRSAAVSEQQQLEQKNLEVEKRSVQCVCTSSALPSGKAQPHASVVYSEAGKDKGPPPKSRYEEELRTRGKTTITAANFIDVIITRQIASDKDARERGSQSSDSSSSLSSHRYETASDAIEVISPASSPAPPQEKPQAYQPDMVKANQAENESTRQYEGPLHHYRSQQESPSPQQQPPLPPSSQSEGMGQVPRTHRLITLADHICQIITQDFARNQVPSQASTSTFQTSPSALSSTPVRTKTSSRYSPESQSQTVLHPRPGPRVSPENLVDKSRGSRPGKSPERSHIPSEPYEPISPPQGPAVHEKQDSMLLLSQRGVDPAEQRSDSRSPGSISYLPSFFTKLESTSPMVKSKKQEIFRKLNSSGGGDSDMAAAQPGTEIFNLPAVTTSGAVSSRSHSFADPASNLGLEDIIRKALMGSFDDKVEDHGVVMSHPVGIMPGSASTSVVTSSEARRDEGEPSPHAGVCKPKLINKSNSRKSKSPIPGQSYLGTERPSSVSSVHSEGDYHRQTPGWAWEDRPSSTGSTQFPYNPLTIRMLSSTPPTQIACAPSAITQAAPHQQNRIWEREPAPLLSAQYETLSDSDD
Regarding B1, the binding entry in the test with PML-RAR is given as “binds”.

B2: CC-RAR (protein)
chain: SELKCDISAEIQQRQEELDAMTQALQALQEQDSAEGAVHAQMHAAVGQLGRARAETEELIRERVRQVVAHVRAQERELLEAVDARYQRDYEEMASRLGRLDAVLQRIRTGSALVQRMKCYASDQEVLDMHGFLRQALCRLRMASNSSSCPTPGGGHLNGYPVPPYAFFFPPMLGGLSPPGALTTLQHQLPVSGYSTPSPATIETQSSSSEEIVPSPPSPPPLPRIYKPCFVCQDKSSGYHYGVSACEGCKGFFRRSIQKNMVYTCHRDKNCIINKVTRNRCQYCRLQKCFEVGMSKESVRNDRNKKKKEVPKPECSESYTLTPEVGELIEKVRKAHQETFPALCQLGKYTTNNSSEQRVSLDIDLWDKFSELSTKCIIKTVEFAKQLPGFTTLTIADQITLLKAACLDILILRICTRYTPEQDTMTFSDGLTLNRTQMHNAGFGPLTDLVFAFANQLLPLEMDDAETGLLSAICLICGDRQDLEQPDRVDMLQEPLLEALKVYVRKRRPSRPHMFPKMLMKITDLRSISAKGAERVITLKMEIPGSMPPLIQEMLENSEGLDTLSGQPGGGGRDGGGLAPPPGSCSPSLSPSSNRSSPATHSP
Regarding B2, the binding result with GST-NCoR (1782-2453) and in the test with CC-RAR (human) was “binds” throughout.
